Experimental findings from PMC12000434 (2025) are described below.

These are yes or no findings as the source states them, for the method shown. Binding seen in cells or lysates may run through a third protein. Binding calls can cover weak binding; strength is not graded here. Tags and fused reporters may be left off the sequences shown.

In the assay the target is TAU (human (endogenous in SH-SY5Y)). As to the kind of experiment: proximity ligation; in situ PLA (Duolink) on fixed SH-SY5Y cells overexpressing FLAG-NDP52^WT or FLAG-NDP52^GE, DMSO (basal) or 100 nM OkA for 1.5 h; rabbit anti-FLAG and mouse anti-TAU.

B1: FLAG-NDP52^WT (protein, UniProt Q13137 1-446)
chain: MEETIKDPPTSAVLLDHCHFSQVIFNSVEKFYIPGGDVTCHYTFTQHFIPRRKDWIGIFRVGWKTTREYYTFMWVTLPIDLNNKSAKQQEVQFKAYYLPKDDEYYQFCYVDEDGVVRGASIPFQFRPENEEDILVVTTQGEVEEIEQHNKELCKENQELKDSCISLQKQNSDMQAELQKKQEELETLQSINKKLELKVKEQKDYWETELLQLKEQNQKMSSENEKMGIRVDQLQAQLSTQEKEMEKLVQGDQDKTEQLEQLKKENDHLFLSLTEQRKDQKKLEQTVEQMKQNETTAMKKQQELMDENFDLSKRLSENEIICNALQRQKERLEGENDLLKRENSRLLSYMGLDFNSLPYQVPTSDEGGARQNPGLAYGNPYSGIQESSSPSPLSIKKCPICKADDICDHTLEQQQMQPLCFNCPICDKIFPATEKQIFEDHVFCHSL
Turning to B1, the binding result is reported as “binds”.

B2: FLAG-NDP52^GE (protein, UniProt Q13137 1-446)
chain: MEETIKDPPTSAVLLDHCHFSQVIFNSVEKFYIPGGDVTCHYTFTQHFIPRRKDWIGIFRVGWKTTREYYTFMWVTLPIDLNNKSAKQQEVQFKAYYLPKDDEYYQFCYVDEDGVVRGASIPFQFRPENEEDILVVTTQEEVEEIEQHNKELCKENQELKDSCISLQKQNSDMQAELQKKQEELETLQSINKKLELKVKEQKDYWETELLQLKEQNQKMSSENEKMGIRVDQLQAQLSTQEKEMEKLVQGDQDKTEQLEQLKKENDHLFLSLTEQRKDQKKLEQTVEQMKQNETTAMKKQQELMDENFDLSKRLSENEIICNALQRQKERLEGENDLLKRENSRLLSYMGLDFNSLPYQVPTSDEGGARQNPGLAYGNPYSGIQESSSPSPLSIKKCPICKADDICDHTLEQQQMQPLCFNCPICDKIFPATEKQIFEDHVFCHSL
For B2, the binding entry is “binds”.
